Results are given in words; binding and its absence hold for the method and conditions named. Some binding calls cover weakened binding; strength is not graded here.

Sequences of proteins named here, by UniProt entry; tags and fusion partners are left off. Residues count along the entry.
UniProt Q01344, residues 21-420: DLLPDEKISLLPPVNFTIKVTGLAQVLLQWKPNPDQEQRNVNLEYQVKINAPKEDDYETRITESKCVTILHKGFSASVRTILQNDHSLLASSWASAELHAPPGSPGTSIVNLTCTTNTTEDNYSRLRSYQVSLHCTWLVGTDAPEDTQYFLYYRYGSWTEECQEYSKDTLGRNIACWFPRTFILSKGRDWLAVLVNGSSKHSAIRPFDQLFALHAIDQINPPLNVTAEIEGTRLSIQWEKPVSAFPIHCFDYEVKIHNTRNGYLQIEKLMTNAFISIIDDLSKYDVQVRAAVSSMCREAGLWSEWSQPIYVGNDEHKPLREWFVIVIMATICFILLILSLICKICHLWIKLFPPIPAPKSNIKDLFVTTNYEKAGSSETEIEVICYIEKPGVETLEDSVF

The assay concerns the target human IL-5Rα expressed on the K562/IL-5Rα cell line (human) (UniProt Q01344). Nature of the assay: flow cytometry on K562/IL-5Rα cells, 50 nM antibody, Alexa Fluor 647 anti-human Fc. (In flow cytometry, cells or beads pass a laser one at a time.)

B1: 5R65.7 anti-IL-5Rα monoclonal antibody (antibody, V domains shown)
VH: QVQLVQSGAEVKKPGSSVKVSCKASGYTFTSYWINWVRQAPGQGLEWIGHIYPNKNENYYNHKFKDKATLTVDKSTNTAYMELSSLRSEDTAVYYCTREFYGRQYYQAMDYWGQGTTLTVSS
VL: DIQMTQSPSTLSASVGDRVTITCKASQNVGTAVAWYQQKPGKAPKLLIYWASTRHTGVPDRFSGSGSGTDFTLTISSLQPDDFATYYCQQFGRYPYTFGSGTKVEVK
In the case of B1, the binding entry is “binds”.
